Pks13 thioesterase: 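Enzyme assay of the thioesterase domain of polyketide synthase 13; the read-out is not stated. Target: Polyketide synthase Pks13, Mycobacterium tuberculosis (UniProt I6X8D2). Compounds at 30 µM. Higher reads as stronger inhibition (inferred from which compounds were picked for retests). About 67,000 compounds were tested under these conditions; 0.46% (about 300) showed 50% or more at least once.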
TcHisRS: 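Enzyme assay of histidyl-tRNA synthetase; the read-out is not stated. Target: Histidine-tRNA ligase, Trypanosoma cruzi CL Brener (UniProt Q4DA54). Compounds at 30 µM. Higher reads as stronger inhibition (inferred: compounds with an IC50 in retests scored well above the rest). Of about 69,000 compounds tested this way, about 31 (0.045%) reached 50% or more in at least one test.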
MtTrpRS: 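Tryptophan-tRNA ligase, Mycobacterium tuberculosis (UniProt P9WFT3). Enzyme assay of tryptophanyl-tRNA synthetase; the read-out is not stated. Compounds at 10 µM. Higher most likely means stronger inhibition; the record gives no direction and few retests gave an IC50. Of about 65,000 compounds tested this way, about 64 (0.098%) reached 50% or more in at least one test.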
ClpP1P2: 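Protease assay of ClpP1P2, read by the AMC dye that it sets free. Target: ClpP1P2, Mycobacterium tuberculosis (UniProt P9WPC5 and UniProt P9WPC3). Tested at 50 µM. Direction is inferred from only a few compounds that gave an IC50; most scored high, so higher reads as stronger inhibition. Most other retested compounds had strongly negative values. Size under these conditions: about 69,000 compounds, about 10 of them at 50% or above in at least one test.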

The chains behind the UniProt entries cited, without tags or fusion partners. Residues count along the entry.
UniProt I6X8D2, whole entry: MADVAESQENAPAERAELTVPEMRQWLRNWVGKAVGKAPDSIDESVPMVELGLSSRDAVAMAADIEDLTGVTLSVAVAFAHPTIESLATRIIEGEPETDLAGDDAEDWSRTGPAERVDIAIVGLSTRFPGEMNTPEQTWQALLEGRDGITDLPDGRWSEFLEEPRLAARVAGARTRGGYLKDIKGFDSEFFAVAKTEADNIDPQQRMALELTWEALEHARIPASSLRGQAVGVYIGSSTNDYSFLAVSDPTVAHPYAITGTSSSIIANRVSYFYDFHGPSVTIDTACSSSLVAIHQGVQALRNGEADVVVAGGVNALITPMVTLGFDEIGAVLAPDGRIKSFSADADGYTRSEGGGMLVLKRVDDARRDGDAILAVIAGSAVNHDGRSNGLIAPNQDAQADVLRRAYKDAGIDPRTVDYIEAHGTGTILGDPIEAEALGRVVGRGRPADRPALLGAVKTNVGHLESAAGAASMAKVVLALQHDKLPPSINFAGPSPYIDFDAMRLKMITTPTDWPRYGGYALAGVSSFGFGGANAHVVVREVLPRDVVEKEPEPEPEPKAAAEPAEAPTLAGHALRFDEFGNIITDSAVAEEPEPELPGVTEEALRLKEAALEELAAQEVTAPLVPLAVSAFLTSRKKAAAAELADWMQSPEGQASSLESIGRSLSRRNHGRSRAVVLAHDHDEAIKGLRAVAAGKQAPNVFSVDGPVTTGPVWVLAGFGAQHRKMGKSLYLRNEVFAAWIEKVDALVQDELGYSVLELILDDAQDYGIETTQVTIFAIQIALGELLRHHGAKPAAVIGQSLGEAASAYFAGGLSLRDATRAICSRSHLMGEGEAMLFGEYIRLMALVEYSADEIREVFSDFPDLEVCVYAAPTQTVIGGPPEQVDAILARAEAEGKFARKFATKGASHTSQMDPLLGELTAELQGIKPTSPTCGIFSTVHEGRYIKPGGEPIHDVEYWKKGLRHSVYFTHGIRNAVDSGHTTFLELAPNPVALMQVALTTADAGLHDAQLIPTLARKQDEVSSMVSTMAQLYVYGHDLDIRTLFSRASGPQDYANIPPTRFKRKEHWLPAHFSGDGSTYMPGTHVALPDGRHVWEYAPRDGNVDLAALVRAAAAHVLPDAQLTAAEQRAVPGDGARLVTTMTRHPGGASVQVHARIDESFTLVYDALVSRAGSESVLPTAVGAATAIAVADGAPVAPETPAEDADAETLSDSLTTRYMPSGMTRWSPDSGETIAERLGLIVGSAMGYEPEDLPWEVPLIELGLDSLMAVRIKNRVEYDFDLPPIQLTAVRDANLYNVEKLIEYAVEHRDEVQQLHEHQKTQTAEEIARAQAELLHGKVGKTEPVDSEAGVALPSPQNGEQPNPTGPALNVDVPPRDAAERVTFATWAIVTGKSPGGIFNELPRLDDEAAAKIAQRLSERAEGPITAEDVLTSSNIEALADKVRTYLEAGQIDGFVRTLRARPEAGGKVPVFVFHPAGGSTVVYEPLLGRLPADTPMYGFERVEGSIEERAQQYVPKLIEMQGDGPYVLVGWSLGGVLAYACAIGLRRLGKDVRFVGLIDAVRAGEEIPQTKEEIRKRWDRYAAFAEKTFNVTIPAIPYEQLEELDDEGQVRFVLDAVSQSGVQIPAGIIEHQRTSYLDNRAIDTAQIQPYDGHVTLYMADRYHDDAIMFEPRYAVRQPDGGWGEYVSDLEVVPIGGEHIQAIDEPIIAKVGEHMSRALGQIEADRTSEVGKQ
UniProt Q4DA54, 1-478: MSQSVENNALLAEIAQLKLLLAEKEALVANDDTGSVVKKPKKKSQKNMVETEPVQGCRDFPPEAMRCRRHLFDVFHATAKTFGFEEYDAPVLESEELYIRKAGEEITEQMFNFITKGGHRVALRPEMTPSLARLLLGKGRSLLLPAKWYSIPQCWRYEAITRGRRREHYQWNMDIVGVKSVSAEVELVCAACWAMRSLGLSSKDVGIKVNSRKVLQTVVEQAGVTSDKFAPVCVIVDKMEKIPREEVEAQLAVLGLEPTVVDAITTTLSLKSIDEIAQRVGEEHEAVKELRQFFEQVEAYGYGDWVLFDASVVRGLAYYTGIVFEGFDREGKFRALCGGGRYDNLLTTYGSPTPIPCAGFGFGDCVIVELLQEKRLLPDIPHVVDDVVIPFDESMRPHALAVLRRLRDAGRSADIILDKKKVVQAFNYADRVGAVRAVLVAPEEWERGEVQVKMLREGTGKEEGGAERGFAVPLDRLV
UniProt P9WFT3, whole entry: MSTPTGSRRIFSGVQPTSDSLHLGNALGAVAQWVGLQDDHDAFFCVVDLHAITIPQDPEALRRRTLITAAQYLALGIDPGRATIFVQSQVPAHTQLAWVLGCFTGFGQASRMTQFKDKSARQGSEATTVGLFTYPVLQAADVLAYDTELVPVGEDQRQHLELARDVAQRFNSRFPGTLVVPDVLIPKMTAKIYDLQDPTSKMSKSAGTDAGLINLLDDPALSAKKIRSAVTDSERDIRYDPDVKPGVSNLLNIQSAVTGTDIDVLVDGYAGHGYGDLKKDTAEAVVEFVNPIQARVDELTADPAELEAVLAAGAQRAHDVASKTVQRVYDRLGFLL
UniProt P9WPC5, whole entry: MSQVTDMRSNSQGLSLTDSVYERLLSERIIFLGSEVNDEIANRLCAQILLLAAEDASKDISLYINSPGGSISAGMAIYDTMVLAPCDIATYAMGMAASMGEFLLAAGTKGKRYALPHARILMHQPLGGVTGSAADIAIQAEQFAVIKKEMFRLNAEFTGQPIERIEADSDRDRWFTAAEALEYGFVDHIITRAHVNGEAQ
UniProt P9WPC3, whole entry partner: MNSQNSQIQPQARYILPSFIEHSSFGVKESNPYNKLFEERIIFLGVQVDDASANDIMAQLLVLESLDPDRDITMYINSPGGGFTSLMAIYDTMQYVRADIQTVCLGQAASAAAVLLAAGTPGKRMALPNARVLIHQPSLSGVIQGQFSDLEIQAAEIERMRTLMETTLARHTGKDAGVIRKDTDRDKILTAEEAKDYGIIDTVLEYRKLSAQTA

The filed quantity is “Percent Effect” (%).
The controls that fix the scale are not given in the record; negative values are as filed.
This is an unselected part of the compounds tested.

For CCn1ccnc1CN1CCN(c2nc(C)cc(OC)n2)CC1 the result was Pks13 thioesterase: -20.62%; TcHisRS: 1.058%; MtTrpRS: -2.493%; ClpP1P2: -2.873%. O=S(=O)(CCN1CCOC(Cn2cncn2)C1)c1ccccc1 (centres undefined) gave Pks13 thioesterase: -25.4%; TcHisRS: -1.695%; MtTrpRS: -0.6706%; ClpP1P2: -12.96%. With Cc1ccc(C2COCCN2C(=O)c2ccsc2)o1 (centres undefined) the screen gave Pks13 thioesterase: 3.098%; TcHisRS: 10%; MtTrpRS: 2.39%; ClpP1P2: -2.444%. With CC1(C(=O)N2CCOCC2)CNCCO1 (centres undefined) the screen gave Pks13 thioesterase: 6.719%; TcHisRS: 1.149%; MtTrpRS: 4.036%; ClpP1P2: -4.46%. Cc1cnc(C(=O)N2CCC3(CCCN(c4nncs4)C3)C2)cn1 (centres undefined) read Pks13 thioesterase: -7.465%; TcHisRS: 3.093%; MtTrpRS: -7.441%; ClpP1P2: 2.95%. Cc1cccc(-c2nc(C)nn2CC(=O)NC(C)C)c1 gave Pks13 thioesterase: -29.31%; TcHisRS: 1.149%; MtTrpRS: 17.72%; ClpP1P2: 0.6929%. CN1CC=C(CCN(C)C(=O)CCc2ccccc2)CC1 gave Pks13 thioesterase: -2.718%; TcHisRS: 15.08%; MtTrpRS: 1.817%; ClpP1P2: -6.36%.

Result for Cc1nc(CN2CCC3(CCN(c4ncc(F)cn4)C3)C2=O)cs1 (centres undefined) was Pks13 thioesterase: -13.35%; TcHisRS: 7.609%; MtTrpRS: 3.418%; ClpP1P2: 2.587%. CCSCCNc1nc2c(s1)c(C)nn2C read Pks13 thioesterase: -8.14%; TcHisRS: 5.357%; MtTrpRS: -0.7158%; ClpP1P2: -11.01%. COc1cc(C)sc1C(=O)NCCNc1ccccc1 gave Pks13 thioesterase: 13%; TcHisRS: 5.419%; MtTrpRS: 15.19%; ClpP1P2: -2.801%. With Cc1cc(Br)oc1C(=O)N1CCN(CC(N)=O)CC1 the screen gave Pks13 thioesterase: -12.01%; TcHisRS: -19.59%; MtTrpRS: 0.3915%; ClpP1P2: -5.421%. With Cc1ccc(C)c2c(O)cc(CN[C@H]3CCCCNC3=O)nc12 the screen gave Pks13 thioesterase: -6.404%; TcHisRS: 3.361%; MtTrpRS: 7.242%; ClpP1P2: -10.19%. For Cc1ccc(CNCC2CCN(CC(O)c3ccccc3)CC2)o1 (centres undefined) the result was Pks13 thioesterase: -14.12%; TcHisRS: 5.634%; MtTrpRS: -8.179%; ClpP1P2: -5.802%. c1ccc2c(N3CCCC3Cn3cccn3)ncnc2c1 (centres undefined) read Pks13 thioesterase: -16.87%; TcHisRS: -0.3831%; MtTrpRS: 3.207%; ClpP1P2: 7.506%.

With O=C(Cc1ccccc1F)N1C[C@@H]2COC[C@]2(COc2cccnc2)C1 the screen gave Pks13 thioesterase: -23.07%; TcHisRS: 1.657%; MtTrpRS: 4.621%; ClpP1P2: -1.109%. Cc1cnn(CC2CCCN2Cc2noc(C(C)C)n2)c1 (centres undefined) read Pks13 thioesterase: 4.532%; TcHisRS: 1.127%; MtTrpRS: -0.1278%; ClpP1P2: -15.87%. Cc1cnn(CCNCC(O)c2ccc3c(c2)OCCO3)c1 (centres undefined) read Pks13 thioesterase: -12.24%; TcHisRS: 2.762%; MtTrpRS: 2.58%; ClpP1P2: 10.58%. Cc1nnsc1CNC(=O)CSCc1ccccc1Cl read Pks13 thioesterase: 4.17%; TcHisRS: 3.867%; MtTrpRS: -10.67%; ClpP1P2: 0.6676%. O=S(=O)(c1cn[nH]c1)N1CCC(O)(CN2CCC(F)(F)CC2)C1 (centres undefined) gave Pks13 thioesterase: -11.85%; TcHisRS: 3.955%; MtTrpRS: -0.06528%; ClpP1P2: -9.601%. For O=C(CSC1CCc2ccccc2NC1=O)NCCc1ccco1 (centres undefined) the result was Pks13 thioesterase: -22.28%; TcHisRS: 0%; MtTrpRS: 3.759%; ClpP1P2: 11.73%. For COCCCNC(=O)CN(C)C(=O)c1cc(C)ccc1O the result was Pks13 thioesterase: -8.542%; TcHisRS: 4.215%; MtTrpRS: -0.4859%; ClpP1P2: 11.04%.

For reference, 2 entries once more:

| compound | Pks13 thioesterase | TcHisRS | MtTrpRS | ClpP1P2 |
|---|---|---|---|---|
| `Cc1cccc(-c2nc(C)nn2CC(=O)NC(C)C)c1` | -29.31% | 1.149% | 17.72% | 0.6929% |
| `Cc1cnn(CCNCC(O)c2ccc3c(c2)OCCO3)c1` (centres undefined) | -12.24% | 2.762% | 2.58% | 10.58% |

Data taken from ChEMBL document CHEMBL3988442, “University of Dundee, Small-Polar-MMV Screening Library” (2021).